Structures are written as SMILES.

What is called IC50 is the concentration at which inhibition is half-maximal.

Test [1] concerns NMDA receptor. Nature of the test: [3H]MK-801 binding assay, synaptic plasma membranes from rat cortex. The following applies: Table II, at 10 µM. How it is done:
Synaptic plasma membranes (SPMs) from rat cortex were prepared as follows. […] The cortices from 25 rats were thawed and pooled. […] The extensive washing procedure utilized in this assay was designed to minimize the concentrations of glutamate and glycine (co-agonists at the NMDA receptor-ionophore complex) present in the membrane preparation.
On the day of assay, aliquots of SPM were thawed and resuspended in 75 vols of 5 mM K-EDTA, pH 7.0.
The SPM pellet was resuspended in assay buffer (30 mM EPPS, 1 mM K-EDTA, pH 7.0) by polytron. […] Binding was started by the addition of the tissue homogenate. The assay was terminated by the addition of 4 ml ice-cold buffer, followed by filtration over glass-fiber filters (Schleicher & Schuell No. 30) on a Millipore 12-well filtration manifold. […] Radioactivity on the filters was measured using Fisherbrand Scinti-Safe scintillation cocktail. Samples were shaken for 45-60 min on a shaker platform to solubilize the radioactivity. Counting for ^3H was performed in a Beckman 6000IC LS Scintillation Counter for 4 min per sample.

In test [2] the test system is NMDA receptor. The test is described as follows: NMDA assay: fura-2 measurement of cytosolic calcium in cultured rat cerebellar granule cells. In kind it is cell-based. The following applies: read-out: fura2 data IC50, fura-2 [Ca2+]i. As for the experimental part: All culture media, antibiotics, and enzymes, with the exception of fetal calf serum (Hyclone Laboratories, Logan, UT), were purchased from Sigma Chemical Co., St. Louis, MO. Fura-2/AM was obtained from Molecular Probes, Eugene, OR, and was prepared freshly in dimethylsulfoxide (DMSO) before use. Ionomycin (Calbiochem) was stored as a stock solution in DMSO. Nifedipine (Sigma) and nimodipine (RBI) were dissolved in absolute ethanol. […] All other agents were dissolved in phosphate-buffered saline (PBS), and adjusted to pH 7.4
Briefly, primary cultures of cerebellar granule neurons were obtained from 8-day-old rats and plated onto squares of Aclar plastic coated with poly-L-lyaine. The plastic squares were placed in 12-well culture plates, and ~7.5 x 10^5 cells were added to each well. […] No changes of culture medium were made until the cells were used for fluorescence recording 6-8 days after plating.
The cells were then rinsed with the same buffer, lacking fura-2/AM, and maintained at room temperature until used for measurement of fluorescence, the Aclar squares were transferred into quartz cuvettes containing 2 ml of the HEPES buffer. […] Fluorescence was measured using excitation and emission wavelengths of 340 and 510 nm, respectively.

`CNCCC(Oc1ccc(C(F)(F)F)cc1)c1ccccc1` (centres unmarked) [Fluoxetine]: the “[^1H]MK-801 data” value with NMDA receptor [1] is reported as “No activity at 10 µM”. Moreover, the IC50 in the test with NMDA receptor [2] was found to be 3.4 µM.

The values above are taken from patent EP1790337A2, “Methods and compounds for treating depression and other disorders” (priority 1998, dated 2000).
